Experimental data from the supplement of paper PMC12067093, “Discovery and optimisation of a covalent ligand for TRIM25 and its application to targeted protein ubiquitination” (Chemical Science, 2025).
Some of the results follow.

Amino acid sequences for entries named in this document (tags omitted). A change or cut given only in a name is not applied to a line headed by its entry.
UniProt Q8TEA7: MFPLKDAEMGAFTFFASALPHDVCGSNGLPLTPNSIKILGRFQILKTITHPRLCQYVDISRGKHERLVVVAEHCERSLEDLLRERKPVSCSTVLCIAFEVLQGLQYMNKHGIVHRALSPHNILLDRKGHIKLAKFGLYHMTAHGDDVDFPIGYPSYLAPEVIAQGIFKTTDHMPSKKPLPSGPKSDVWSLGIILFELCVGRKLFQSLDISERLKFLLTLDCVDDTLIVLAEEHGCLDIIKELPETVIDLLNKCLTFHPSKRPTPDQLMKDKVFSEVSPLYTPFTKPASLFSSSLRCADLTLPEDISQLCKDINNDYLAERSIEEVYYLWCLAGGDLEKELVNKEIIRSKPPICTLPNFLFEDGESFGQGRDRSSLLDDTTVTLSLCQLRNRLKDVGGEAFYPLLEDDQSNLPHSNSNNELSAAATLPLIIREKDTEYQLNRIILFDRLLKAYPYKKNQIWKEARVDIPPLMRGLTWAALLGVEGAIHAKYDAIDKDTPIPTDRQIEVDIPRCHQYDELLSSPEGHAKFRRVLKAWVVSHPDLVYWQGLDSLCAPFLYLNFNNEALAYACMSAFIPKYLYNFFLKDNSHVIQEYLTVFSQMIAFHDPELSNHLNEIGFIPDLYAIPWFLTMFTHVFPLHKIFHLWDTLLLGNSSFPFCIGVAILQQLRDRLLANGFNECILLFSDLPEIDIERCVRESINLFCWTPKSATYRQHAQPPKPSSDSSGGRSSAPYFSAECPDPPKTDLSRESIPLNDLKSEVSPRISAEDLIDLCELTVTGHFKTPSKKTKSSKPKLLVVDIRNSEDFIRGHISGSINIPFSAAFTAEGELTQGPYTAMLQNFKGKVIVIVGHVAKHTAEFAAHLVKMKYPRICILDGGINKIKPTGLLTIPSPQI
UniProt Q969Z0: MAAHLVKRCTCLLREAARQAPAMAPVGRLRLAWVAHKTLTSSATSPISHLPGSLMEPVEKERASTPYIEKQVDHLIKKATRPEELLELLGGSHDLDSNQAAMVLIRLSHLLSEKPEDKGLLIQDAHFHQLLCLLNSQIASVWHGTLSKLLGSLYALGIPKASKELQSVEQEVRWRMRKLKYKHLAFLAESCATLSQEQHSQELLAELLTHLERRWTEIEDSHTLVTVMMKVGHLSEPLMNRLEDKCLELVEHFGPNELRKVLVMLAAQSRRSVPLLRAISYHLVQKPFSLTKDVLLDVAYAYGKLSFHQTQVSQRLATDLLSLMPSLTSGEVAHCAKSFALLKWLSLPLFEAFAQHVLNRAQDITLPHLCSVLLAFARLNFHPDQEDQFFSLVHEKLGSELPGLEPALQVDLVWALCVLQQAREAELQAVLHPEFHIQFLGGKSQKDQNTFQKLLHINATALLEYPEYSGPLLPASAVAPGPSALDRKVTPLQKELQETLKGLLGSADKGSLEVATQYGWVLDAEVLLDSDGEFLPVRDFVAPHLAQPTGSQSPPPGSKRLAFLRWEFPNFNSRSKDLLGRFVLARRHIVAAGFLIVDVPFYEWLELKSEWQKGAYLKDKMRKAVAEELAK
UniProt Q9BTW9: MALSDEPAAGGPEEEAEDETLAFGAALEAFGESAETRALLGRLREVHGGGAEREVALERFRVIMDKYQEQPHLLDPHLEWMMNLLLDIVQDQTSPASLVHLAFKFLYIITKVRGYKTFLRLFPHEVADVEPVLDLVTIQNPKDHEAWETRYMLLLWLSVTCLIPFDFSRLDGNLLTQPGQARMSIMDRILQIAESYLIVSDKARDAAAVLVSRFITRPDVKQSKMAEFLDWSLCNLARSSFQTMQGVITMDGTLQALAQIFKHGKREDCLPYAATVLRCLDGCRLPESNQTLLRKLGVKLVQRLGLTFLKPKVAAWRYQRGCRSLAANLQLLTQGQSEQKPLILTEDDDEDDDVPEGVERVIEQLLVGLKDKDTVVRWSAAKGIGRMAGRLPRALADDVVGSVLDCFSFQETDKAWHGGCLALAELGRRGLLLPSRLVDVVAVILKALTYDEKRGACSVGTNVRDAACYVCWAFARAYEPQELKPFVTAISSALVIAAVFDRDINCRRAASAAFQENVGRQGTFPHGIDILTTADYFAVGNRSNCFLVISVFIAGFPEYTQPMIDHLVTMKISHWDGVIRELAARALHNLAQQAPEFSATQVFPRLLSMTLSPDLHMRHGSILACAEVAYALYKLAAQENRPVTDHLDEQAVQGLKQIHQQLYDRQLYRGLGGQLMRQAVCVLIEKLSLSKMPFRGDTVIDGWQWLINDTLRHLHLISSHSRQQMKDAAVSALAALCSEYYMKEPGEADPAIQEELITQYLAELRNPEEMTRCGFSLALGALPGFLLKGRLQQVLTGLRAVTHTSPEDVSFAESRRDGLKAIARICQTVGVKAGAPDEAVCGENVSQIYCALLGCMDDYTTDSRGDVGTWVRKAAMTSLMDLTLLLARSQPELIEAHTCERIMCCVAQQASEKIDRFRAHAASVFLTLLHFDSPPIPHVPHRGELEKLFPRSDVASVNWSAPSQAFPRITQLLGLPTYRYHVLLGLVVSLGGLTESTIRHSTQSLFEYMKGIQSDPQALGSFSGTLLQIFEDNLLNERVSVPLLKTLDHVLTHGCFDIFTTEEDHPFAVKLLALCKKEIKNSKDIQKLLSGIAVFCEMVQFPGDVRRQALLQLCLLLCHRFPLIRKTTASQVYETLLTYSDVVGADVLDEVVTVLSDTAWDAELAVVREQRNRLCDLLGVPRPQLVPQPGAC
UniProt P49848, whole entry, looked up: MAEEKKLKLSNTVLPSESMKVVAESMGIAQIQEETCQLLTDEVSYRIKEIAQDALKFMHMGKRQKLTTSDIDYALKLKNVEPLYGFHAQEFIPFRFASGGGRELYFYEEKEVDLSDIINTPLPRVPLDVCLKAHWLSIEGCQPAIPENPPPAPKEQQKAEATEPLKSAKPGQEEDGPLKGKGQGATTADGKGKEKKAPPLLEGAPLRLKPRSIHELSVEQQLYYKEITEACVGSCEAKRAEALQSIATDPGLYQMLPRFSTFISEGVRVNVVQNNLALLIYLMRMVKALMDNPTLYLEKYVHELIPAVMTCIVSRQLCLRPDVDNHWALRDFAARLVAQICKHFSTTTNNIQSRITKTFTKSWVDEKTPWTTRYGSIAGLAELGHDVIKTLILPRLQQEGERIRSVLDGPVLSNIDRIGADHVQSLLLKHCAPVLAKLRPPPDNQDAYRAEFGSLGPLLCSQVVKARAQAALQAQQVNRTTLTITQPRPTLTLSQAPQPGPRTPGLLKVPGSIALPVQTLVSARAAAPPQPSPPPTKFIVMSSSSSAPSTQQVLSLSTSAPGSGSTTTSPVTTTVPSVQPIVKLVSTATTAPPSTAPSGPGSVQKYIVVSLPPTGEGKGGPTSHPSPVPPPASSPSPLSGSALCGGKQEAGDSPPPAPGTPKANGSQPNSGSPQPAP
UniProt Q9NU19: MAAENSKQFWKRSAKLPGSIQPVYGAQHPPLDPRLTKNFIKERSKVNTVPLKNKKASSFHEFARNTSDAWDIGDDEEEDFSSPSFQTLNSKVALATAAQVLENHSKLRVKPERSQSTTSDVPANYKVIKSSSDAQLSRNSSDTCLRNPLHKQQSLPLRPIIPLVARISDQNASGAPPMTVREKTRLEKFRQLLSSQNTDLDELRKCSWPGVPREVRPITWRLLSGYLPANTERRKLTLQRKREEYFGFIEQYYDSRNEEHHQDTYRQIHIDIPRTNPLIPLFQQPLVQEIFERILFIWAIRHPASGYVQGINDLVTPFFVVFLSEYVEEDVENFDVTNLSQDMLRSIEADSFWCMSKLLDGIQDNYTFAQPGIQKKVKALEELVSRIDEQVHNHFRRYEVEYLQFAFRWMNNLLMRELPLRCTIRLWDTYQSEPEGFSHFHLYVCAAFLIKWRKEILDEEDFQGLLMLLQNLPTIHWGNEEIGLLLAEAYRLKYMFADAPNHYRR
UniProt Q9Y4P3: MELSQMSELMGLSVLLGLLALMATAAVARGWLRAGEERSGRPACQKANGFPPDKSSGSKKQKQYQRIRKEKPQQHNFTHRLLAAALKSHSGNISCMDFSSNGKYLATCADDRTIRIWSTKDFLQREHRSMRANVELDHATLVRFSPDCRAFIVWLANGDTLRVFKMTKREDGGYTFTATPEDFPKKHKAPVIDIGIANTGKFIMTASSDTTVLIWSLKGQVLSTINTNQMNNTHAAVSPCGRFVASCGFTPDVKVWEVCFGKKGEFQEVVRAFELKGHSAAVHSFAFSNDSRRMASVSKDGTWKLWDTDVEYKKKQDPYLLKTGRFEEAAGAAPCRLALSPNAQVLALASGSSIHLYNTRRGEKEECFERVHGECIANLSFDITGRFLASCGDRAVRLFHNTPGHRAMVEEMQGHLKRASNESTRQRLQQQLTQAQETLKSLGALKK
UniProt A2RTX5: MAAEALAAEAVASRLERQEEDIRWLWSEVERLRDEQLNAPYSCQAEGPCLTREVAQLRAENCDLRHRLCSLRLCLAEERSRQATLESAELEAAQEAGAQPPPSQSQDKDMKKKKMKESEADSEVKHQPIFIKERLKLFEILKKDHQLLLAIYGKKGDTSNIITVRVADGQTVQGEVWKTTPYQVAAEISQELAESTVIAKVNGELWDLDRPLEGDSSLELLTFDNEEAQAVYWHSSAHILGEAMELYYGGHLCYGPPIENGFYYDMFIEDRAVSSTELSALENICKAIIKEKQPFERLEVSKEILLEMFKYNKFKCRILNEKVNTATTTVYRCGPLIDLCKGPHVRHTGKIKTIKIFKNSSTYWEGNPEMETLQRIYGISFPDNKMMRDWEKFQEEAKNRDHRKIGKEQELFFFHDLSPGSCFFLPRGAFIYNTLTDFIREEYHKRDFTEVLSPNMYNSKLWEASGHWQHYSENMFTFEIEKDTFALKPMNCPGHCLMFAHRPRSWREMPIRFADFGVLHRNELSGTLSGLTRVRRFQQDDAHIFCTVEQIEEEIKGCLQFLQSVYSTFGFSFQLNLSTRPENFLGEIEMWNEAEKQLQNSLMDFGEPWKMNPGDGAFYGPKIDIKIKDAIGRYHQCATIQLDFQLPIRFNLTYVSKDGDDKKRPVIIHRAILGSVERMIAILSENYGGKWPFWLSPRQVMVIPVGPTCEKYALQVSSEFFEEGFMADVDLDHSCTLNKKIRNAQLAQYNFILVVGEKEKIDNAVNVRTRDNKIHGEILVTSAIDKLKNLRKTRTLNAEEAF
UniProt Q86TM6, whole entry, looked up: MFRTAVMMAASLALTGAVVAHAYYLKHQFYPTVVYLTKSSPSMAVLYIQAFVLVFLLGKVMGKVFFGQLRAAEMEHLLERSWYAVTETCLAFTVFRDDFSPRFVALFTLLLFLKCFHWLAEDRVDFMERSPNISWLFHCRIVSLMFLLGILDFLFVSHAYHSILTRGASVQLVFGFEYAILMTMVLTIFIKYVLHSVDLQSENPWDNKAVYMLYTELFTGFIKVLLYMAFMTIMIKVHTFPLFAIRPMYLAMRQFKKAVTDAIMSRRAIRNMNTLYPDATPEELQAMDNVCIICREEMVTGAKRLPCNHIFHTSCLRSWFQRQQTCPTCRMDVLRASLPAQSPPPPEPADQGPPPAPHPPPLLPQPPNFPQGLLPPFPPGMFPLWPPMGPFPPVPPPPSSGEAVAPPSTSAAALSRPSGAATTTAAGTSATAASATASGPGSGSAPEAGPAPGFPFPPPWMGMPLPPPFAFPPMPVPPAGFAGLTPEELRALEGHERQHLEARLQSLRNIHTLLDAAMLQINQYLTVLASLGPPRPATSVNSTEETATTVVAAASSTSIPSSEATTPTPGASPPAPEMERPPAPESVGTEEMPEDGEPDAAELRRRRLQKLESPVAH
UniProt P37802: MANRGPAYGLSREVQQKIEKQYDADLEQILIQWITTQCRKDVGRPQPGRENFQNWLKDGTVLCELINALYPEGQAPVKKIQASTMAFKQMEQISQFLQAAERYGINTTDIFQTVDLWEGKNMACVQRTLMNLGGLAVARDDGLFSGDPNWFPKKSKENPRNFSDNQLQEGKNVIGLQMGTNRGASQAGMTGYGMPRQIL
UniProt Q9NVG8: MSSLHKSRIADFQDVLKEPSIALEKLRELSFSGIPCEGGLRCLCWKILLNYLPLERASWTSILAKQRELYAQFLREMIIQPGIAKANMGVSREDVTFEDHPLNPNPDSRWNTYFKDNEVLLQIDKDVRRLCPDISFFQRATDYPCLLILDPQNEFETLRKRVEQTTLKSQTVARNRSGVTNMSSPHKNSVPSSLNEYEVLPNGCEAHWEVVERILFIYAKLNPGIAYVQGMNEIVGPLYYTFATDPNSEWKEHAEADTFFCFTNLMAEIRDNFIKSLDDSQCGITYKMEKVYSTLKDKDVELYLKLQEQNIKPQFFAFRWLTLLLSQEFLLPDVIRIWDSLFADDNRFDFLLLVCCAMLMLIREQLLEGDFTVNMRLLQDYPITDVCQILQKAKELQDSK

What follows are targets tested with Cc1cc(ccc1-c1ccccc1)C(=O)N1CCCN(CC1)C(=O)CCl [compound 10] (assay: probe-labelled cysteine peptide fold change vs DMSO (competition) (log2 fold change); higher = less target engagement (more negative = stronger competition)). Conditions: 10 µM; THP-1; incubation time: 4 h.
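Further: competitive profiling in live THP-1 cells: cysteine peptides tagged with an iodoacetamide desthiobiotin (IA-DTB) probe, intensity after compound treatment relative to DMSO-treated cells.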

Target	probe-labelled cysteine peptide fold change
TBCE_Q15813_152_GGVAEACPNIR (UniProt Q15813)	-0.0462
TBCK_Q8TEA7_871_ICILDGGINK (UniProt Q8TEA7)	-0.096
TBRG4_Q969Z0_335_LATDLLSLMPSLTSGEVAHCAK (UniProt Q969Z0)	0.142
TBCD_Q9BTW9_899_SQPELIEAHTCER (UniProt Q9BTW9)	0.0463
TACO1_Q9BSH4_234_FICDASSLHQVR (UniProt Q9BSH4)	0.293
SYNJ2_O15056_31_GRDDCLLFEAGTVATLAPEEK (UniProt O15056)	0.124
TBL3_Q12788_41_AQLDQTGQHLFCVCGTR (UniProt Q12788)	0.148
TAX1BP1_Q86VP1_196_ERCDQLQAEQK (UniProt Q86VP1)	-0.325
TBC1D14_Q9P2M4_81_HSLQSVDSGIPTLEIGNPEPVPCSAVHVR (UniProt Q9P2M4)	-0.189
TBC1D15_Q8TC07_605_IDVEDILCK (UniProt Q8TC07)	0.204
SYPL1_Q16563_193_IATGHNIIDELPPCK (UniProt Q16563)	-0.147
TCIRG1_Q13488_241_KITDCFHCHVFPFLQQEEAR (UniProt Q13488)	-0.0907
TCF20_Q9UGU0_498_KADSCTNSEGSSQPEEQLK (UniProt Q9UGU0)	-0.092
SYNRG_Q9UMZ2_625_NPLNLADLDMFSSVNCSSEK (UniProt Q9UMZ2)	-0.205
TARS_P26639_137_VNNVVWDLDRPLEEDCTLELLKFEDEEAQAVYWHSSAHIMGEAMER (UniProt P26639)	-0.123
TAF6_P49848_141_AHWLSIEGCQPAIPENPPPAPK (UniProt P49848)	-0.235
TANGO6_Q9C0B7_375_DICPQVLDLFHFQDK (UniProt Q9C0B7)	-0.36
TBCCD1_Q9NVR7_337_CNESFIYLLSPLR (UniProt Q9NVR7)	0.178

Target	probe-labelled cysteine peptide fold change
TBC1D5_Q92609_192_ILTDVLFCYAR (UniProt Q92609)	0.105
TCIRG1_Q13488_238+241_KITDCFHCHVFPFLQQEEAR (UniProt Q13488)	-0.0689
TCF20_Q9UGU0_1163_CLMSSDGLPNK (UniProt Q9UGU0)	-0.08
TBCD_Q9BTW9_420_AWHGGCLALAELGR (UniProt Q9BTW9)	0.074
TBC1D22B_Q9NU19_206_CSWPGVPR (UniProt Q9NU19)	-0.0108
TATDN2_Q93075_563_EDLVWGAFGCHPHFAR (UniProt Q93075)	-0.00416
TBL2_Q9Y4P3_259_VWEVCFGK (UniProt Q9Y4P3)	0.063
TARSL2_A2RTX5_546_FQQDDAHIFCTVEQIEEEIK (UniProt A2RTX5)	0.838
TCIRG1_Q13488_25_SEEVALVQLFLPTAAAYTCVSR (UniProt Q13488)	0.2
TAX1BP1_Q86VP1_196_CDQLQAEQK (UniProt Q86VP1)	-0.183
SYVN1_Q86TM6_307_LPCNHIFHTSCLR (UniProt Q86TM6)	0.193
TBCK_Q8TEA7_74_LVVVAEHCER (UniProt Q8TEA7)	0.166
TAGLN2_P37802_63_DGTVLCELINALYPEGQAPVKK (UniProt P37802)	0.178
TBC1D13_Q9NVG8_261_EHAEADTFFCFTNLMAEIRDNFIK (UniProt Q9NVG8)	-0.104
TBRG4_Q969Z0_370_AQDITLPHLCSVLLAFAR (UniProt Q969Z0)	-0.0263
SYVN1_Q86TM6_326+329_QQTCPTCR (UniProt Q86TM6)	-0.0656
TBCB_Q99426_51_LELLVGSPASCMELELYGVDDK (UniProt Q99426)	0.0991

Same assay, conditions: 50 µM; THP-1; incubation time: 4 h

Target	probe-labelled cysteine peptide fold change
TBCE_Q15813_152_GGVAEACPNIR (UniProt Q15813)	0.118
TBCK_Q8TEA7_871_ICILDGGINK (UniProt Q8TEA7)	0.167
TBRG4_Q969Z0_335_LATDLLSLMPSLTSGEVAHCAK (UniProt Q969Z0)	0.146
TBCD_Q9BTW9_899_SQPELIEAHTCER (UniProt Q9BTW9)	-0.24
TACO1_Q9BSH4_234_FICDASSLHQVR (UniProt Q9BSH4)	-0.0566
SYNJ2_O15056_31_GRDDCLLFEAGTVATLAPEEK (UniProt O15056)	0.106
TBL3_Q12788_41_AQLDQTGQHLFCVCGTR (UniProt Q12788)	-0.0118
TAX1BP1_Q86VP1_196_ERCDQLQAEQK (UniProt Q86VP1)	-0.327
TBC1D14_Q9P2M4_81_HSLQSVDSGIPTLEIGNPEPVPCSAVHVR (UniProt Q9P2M4)	-0.286
TBC1D15_Q8TC07_605_IDVEDILCK (UniProt Q8TC07)	0.271
SYPL1_Q16563_193_IATGHNIIDELPPCK (UniProt Q16563)	0.0871
TCIRG1_Q13488_241_KITDCFHCHVFPFLQQEEAR (UniProt Q13488)	-0.178
TCF20_Q9UGU0_498_KADSCTNSEGSSQPEEQLK (UniProt Q9UGU0)	-0.433
SYNRG_Q9UMZ2_625_NPLNLADLDMFSSVNCSSEK (UniProt Q9UMZ2)	-0.356
TARS_P26639_137_VNNVVWDLDRPLEEDCTLELLKFEDEEAQAVYWHSSAHIMGEAMER (UniProt P26639)	-0.673
TAF6_P49848_141_AHWLSIEGCQPAIPENPPPAPK (UniProt P49848)	-0.242
TANGO6_Q9C0B7_375_DICPQVLDLFHFQDK (UniProt Q9C0B7)	-0.218
TBCCD1_Q9NVR7_337_CNESFIYLLSPLR (UniProt Q9NVR7)	0.422

Target	probe-labelled cysteine peptide fold change
TBC1D5_Q92609_192_ILTDVLFCYAR (UniProt Q92609)	0.0472
TCIRG1_Q13488_238+241_KITDCFHCHVFPFLQQEEAR (UniProt Q13488)	-0.136
TCF20_Q9UGU0_1163_CLMSSDGLPNK (UniProt Q9UGU0)	-0.485
TBCD_Q9BTW9_420_AWHGGCLALAELGR (UniProt Q9BTW9)	0.0126
TBC1D22B_Q9NU19_206_CSWPGVPR (UniProt Q9NU19)	0.205
TATDN2_Q93075_563_EDLVWGAFGCHPHFAR (UniProt Q93075)	-0.32
TBL2_Q9Y4P3_259_VWEVCFGK (UniProt Q9Y4P3)	0.174
TARSL2_A2RTX5_546_FQQDDAHIFCTVEQIEEEIK (UniProt A2RTX5)	0.796
TCIRG1_Q13488_25_SEEVALVQLFLPTAAAYTCVSR (UniProt Q13488)	-0.307
TAX1BP1_Q86VP1_196_CDQLQAEQK (UniProt Q86VP1)	-0.305
SYVN1_Q86TM6_307_LPCNHIFHTSCLR (UniProt Q86TM6)	0.273
TBCK_Q8TEA7_74_LVVVAEHCER (UniProt Q8TEA7)	0.672
TAGLN2_P37802_63_DGTVLCELINALYPEGQAPVKK (UniProt P37802)	-0.187
TBC1D13_Q9NVG8_261_EHAEADTFFCFTNLMAEIRDNFIK (UniProt Q9NVG8)	-0.178
TBRG4_Q969Z0_370_AQDITLPHLCSVLLAFAR (UniProt Q969Z0)	0.177
SYVN1_Q86TM6_326+329_QQTCPTCR (UniProt Q86TM6)	-0.505
TBCB_Q99426_51_LELLVGSPASCMELELYGVDDK (UniProt Q99426)	0.421
